# Test results as given in the supplement of paper PMC8728848.
# This is one part of the list.
# B1: GS13599A-bth-520-23-520 (Bacteroides thetaiotaomicron) (protein)
# chain: SEDTMDRINKDHDHTTSVASRFILADVITSTAFSNASGDINTYASSYIEYEVGVDNQLYYAEVRENEPSSSSTFNNSWNGIYSSLKNARIIIDQCGEGGRDHGNDVTRGMAEVMAAYNCALIADFFGDAPCSQAALVDEKGSPVYMTPKMDTQQEIYTQIISYLDDAIANLQKEDLADVTEQDFLYAGDADKWLKFAYGLKARYTMRLINRSSNKSADYEKVLDYVSKSFTSADDQAAFDIYDSNNINPFYGFYNSRAGFGASTSLGTKLLAYNDPRANRAFFTPIVDKKRSQVAANDPSLVPAPNGSPDQSTSKYGISAFVYAKTAPTLLMSYHELMFLKAEALCRLNRDAEDALKEAVVAGLLNAENSISIAIKELGSGLNTNSSEVITETSAGKYFDDVVKAKYAANPLQETMIQKYLAMWGASGEATETYNDFRRMKGLNENFITLTNPNNSSKFPLRYPYGNSDTAANPEVKAAYGNGDYVYSEPVWWAGGSR
# Tests used:
# Assay in all cases: glycan array binding signal (z-score within array); higher = stronger binding
# Details in all cases: glycan notation: IUPAC condensed, linker removed
# [1] = biological target: Gal(b1-4)GlcNAc(b1-2)[Gal(b1-4)GlcNAc(b1-6)]Man(a1-6)[GlcNAc(b1-4)][Gal(b1-4)GlcNAc(b1-2)Man(a1-3)]Man(b1-4)GlcNAc(b1-4)GlcNAc
# Procedure, shortened: (§1)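 From the Consortium for Functional Glycomics database, 3228 arrays were curated, keeping only those whose protein sequence was available. Binding is given as a within-array Z-score averaged across arrays sharing a protein sequence and across linkers. Negative Z-scores can be read as non-binding.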
# [2] = biological target: Gal(b1-4)GlcNAc(b1-2)[Gal(b1-4)GlcNAc(b1-6)]Man(a1-6)[GlcNAc(b1-4)][Gal(b1-4)GlcNAc(b1-2)[Gal(b1-4)GlcNAc(b1-4)]Man(a1-3)]Man(b1-4)GlcNAc(b1-4)[Fuc(a1-6)]GlcNAc
# Procedure, shortened: as §1
# [3] = biological target: Gal(b1-4)GlcNAc(b1-3)Gal(b1-3)GalNAc
# Procedure, shortened: as §1
# [4] = biological target: Gal(b1-4)GlcNAc(b1-3)Gal(b1-3)GlcNAc
# Procedure, shortened: as §1
# [5] = biological target: Gal(b1-4)GlcNAc(b1-3)Gal(b1-4)Glc
# Procedure, shortened: as §1
# [6] = biological target: Gal(b1-4)GlcNAc(b1-3)Gal(b1-4)GlcNAc
# Procedure, shortened: as §1
# [7] = biological target: Gal(b1-4)GlcNAc(b1-3)Gal(b1-4)GlcNAc(b1-2)Man(a1-3)[Gal(b1-4)GlcNAc(b1-3)Gal(b1-4)GlcNAc(b1-2)Man(a1-6)]Man(b1-4)GlcNAc(b1-4)GlcNAc
# Procedure, shortened: as §1
# [8] = biological target: Gal(b1-4)GlcNAc(b1-3)Gal(b1-4)GlcNAc(b1-2)Man(a1-3)[Gal(b1-4)GlcNAc(b1-3)Gal(b1-4)GlcNAc(b1-2)Man(a1-6)]Man(b1-4)GlcNAc(b1-4)[Fuc(a1-6)]GlcNAc
# Procedure, shortened: as §1
# [9] = biological target: Gal(b1-4)GlcNAc(b1-3)Gal(b1-4)GlcNAc(b1-2)[Gal(b1-4)GlcNAc(b1-3)Gal(b1-4)GlcNAc(b1-6)]Man(a1-6)[Gal(b1-4)GlcNAc(b1-3)Gal(b1-4)GlcNAc(b1-2)Man(a1-3)]Man(b1-4)GlcNAc(b1-4)GlcNAc
# Procedure, shortened: as §1
# [10] = biological target: Gal(b1-4)GlcNAc(b1-3)Gal(b1-4)GlcNAc(b1-2)[Gal(b1-4)GlcNAc(b1-3)Gal(b1-4)GlcNAc(b1-6)]Man(a1-6)[Gal(b1-4)GlcNAc(b1-3)Gal(b1-4)GlcNAc(b1-2)Man(a1-3)]Man(b1-4)GlcNAc(b1-4)[Fuc(a1-6)]GlcNAc
# Procedure, shortened: as §1
# [11] = biological target: Gal(b1-4)GlcNAc(b1-3)Gal(b1-4)GlcNAc(b1-3)Gal(b1-4)GlcNAc
# Procedure, shortened: as §1
# [12] = biological target: Gal(b1-4)GlcNAc(b1-3)Gal(b1-4)GlcNAc(b1-3)Gal(b1-4)GlcNAc(b1-2)Man(a1-3)[Gal(b1-4)GlcNAc(b1-3)Gal(b1-4)GlcNAc(b1-3)Gal(b1-4)GlcNAc(b1-2)Man(a1-6)]Man(b1-4)GlcNAc(b1-4)GlcNAc
# Procedure, shortened: as §1
# [13] = biological target: Gal(b1-4)GlcNAc(b1-3)Gal(b1-4)GlcNAc(b1-3)Gal(b1-4)GlcNAc(b1-2)Man(a1-3)[Gal(b1-4)GlcNAc(b1-3)Gal(b1-4)GlcNAc(b1-3)Gal(b1-4)GlcNAc(b1-2)Man(a1-6)]Man(b1-4)GlcNAc(b1-4)[Fuc(a1-6)]GlcNAc
# Procedure, shortened: as §1
# [14] = biological target: Gal(b1-4)GlcNAc(b1-3)Gal(b1-4)GlcNAc(b1-3)Gal(b1-4)GlcNAc(b1-2)[Gal(b1-4)GlcNAc(b1-3)Gal(b1-4)GlcNAc(b1-3)Gal(b1-4)GlcNAc(b1-6)]Man(a1-6)[Gal(b1-4)GlcNAc(b1-3)Gal(b1-4)GlcNAc(b1-3)Gal(b1-4)GlcNAc(b1-2)Man(a1-3)]Man(b1-4)GlcNAc(b1-4)[Fuc(a1-6)]GlcNAc
# Procedure, shortened: as §1
# [15] = biological target: Gal(b1-4)GlcNAc(b1-3)Gal(b1-4)GlcNAc(b1-3)Gal(b1-4)GlcNAc(b1-3)Gal(b1-4)GlcNAc(b1-2)Man(a1-3)[Gal(b1-4)GlcNAc(b1-3)Gal(b1-4)GlcNAc(b1-3)Gal(b1-4)GlcNAc(b1-3)Gal(b1-4)GlcNAc(b1-2)Man(a1-6)]Man(b1-4)GlcNAc(b1-4)GlcNAc
# Procedure, shortened: as §1
# [16] = biological target: Gal(b1-4)GlcNAc(b1-3)Gal(b1-4)GlcNAc(b1-3)Gal(b1-4)GlcNAc(b1-3)Gal(b1-4)GlcNAc(b1-2)Man(a1-3)[Gal(b1-4)GlcNAc(b1-3)Gal(b1-4)GlcNAc(b1-3)Gal(b1-4)GlcNAc(b1-3)Gal(b1-4)GlcNAc(b1-2)Man(a1-6)]Man(b1-4)GlcNAc(b1-4)[Fuc(a1-6)]GlcNAc
# Procedure, shortened: as §1
# [17] = biological target: Gal(b1-4)GlcNAc(b1-3)Gal(b1-4)GlcNAc(b1-3)Gal(b1-4)GlcNAc(b1-3)Gal(b1-4)GlcNAc(b1-2)[Gal(b1-4)GlcNAc(b1-3)Gal(b1-4)GlcNAc(b1-3)Gal(b1-4)GlcNAc(b1-3)Gal(b1-4)GlcNAc(b1-6)]Man(a1-6)[Gal(b1-4)GlcNAc(b1-3)Gal(b1-4)GlcNAc(b1-3)Gal(b1-4)GlcNAc(b1-3)Gal(b1-4)GlcNAc(b1-2)Man(a1-3)]Man(b1-4)GlcNAc(b1-4)[Fuc(a1-6)]GlcNAc
# Procedure, shortened: as §1
# [18] = biological target: Gal(b1-4)GlcNAc(b1-3)Gal(b1-4)GlcNAc(b1-3)Gal(b1-4)GlcNAc(b1-3)Gal(b1-4)GlcNAc(b1-3)Gal(b1-4)GlcNAc(b1-2)Man(a1-3)[Gal(b1-4)GlcNAc(b1-3)Gal(b1-4)GlcNAc(b1-3)Gal(b1-4)GlcNAc(b1-3)Gal(b1-4)GlcNAc(b1-3)Gal(b1-4)GlcNAc(b1-2)Man(a1-6)]Man(b1-4)GlcNAc(b1-4)GlcNAc
# Procedure, shortened: as §1
# [19] = biological target: Gal(b1-4)GlcNAc(b1-3)Gal(b1-4)GlcNAc(b1-3)Gal(b1-4)GlcNAc(b1-3)Gal(b1-4)GlcNAc(b1-3)Gal(b1-4)GlcNAc(b1-2)Man(a1-3)[Gal(b1-4)GlcNAc(b1-3)Gal(b1-4)GlcNAc(b1-3)Gal(b1-4)GlcNAc(b1-3)Gal(b1-4)GlcNAc(b1-3)Gal(b1-4)GlcNAc(b1-2)Man(a1-6)]Man(b1-4)GlcNAc(b1-4)[Fuc(a1-6)]GlcNAc
# Procedure, shortened: as §1
# [20] = biological target: Gal(b1-4)GlcNAc(b1-3)Gal(b1-4)GlcNAc(b1-3)Gal(b1-4)GlcNAc(b1-3)Gal(b1-4)GlcNAc(b1-3)Gal(b1-4)GlcNAc(b1-2)[Gal(b1-4)GlcNAc(b1-3)Gal(b1-4)GlcNAc(b1-3)Gal(b1-4)GlcNAc(b1-3)Gal(b1-4)GlcNAc(b1-3)Gal(b1-4)GlcNAc(b1-6)]Man(a1-6)[Gal(b1-4)GlcNAc(b1-3)Gal(b1-4)GlcNAc(b1-3)Gal(b1-4)GlcNAc(b1-3)Gal(b1-4)GlcNAc(b1-3)Gal(b1-4)GlcNAc(b1-2)Man(a1-3)]Man(b1-4)GlcNAc(b1-4)[Fuc(a1-6)]GlcNAc
# Procedure, shortened: as §1
# [21] = biological target: Gal(b1-4)GlcNAc(b1-3)Gal(b1-4)GlcNAc(b1-3)Gal(b1-4)GlcNAc(b1-3)Gal(b1-4)GlcNAc(b1-3)Gal(b1-4)GlcNAc(b1-3)Gal(b1-4)GlcNAc(b1-2)Man(a1-3)[Gal(b1-4)GlcNAc(b1-3)Gal(b1-4)GlcNAc(b1-3)Gal(b1-4)GlcNAc(b1-3)Gal(b1-4)GlcNAc(b1-3)Gal(b1-4)GlcNAc(b1-3)Gal(b1-4)GlcNAc(b1-2)Man(a1-6)]Man(b1-4)GlcNAc(b1-4)GlcNAc
# Procedure, shortened: as §1
# [22] = biological target: Gal(b1-4)GlcNAc(b1-3)Gal(b1-4)GlcNAc(b1-3)GalNAc
# Procedure, shortened: as §1
# [23] = biological target: Gal(b1-4)GlcNAc(b1-3)Gal(b1-4)GlcNAc(b1-3)[Gal(b1-4)GlcNAc(b1-3)Gal(b1-4)GlcNAc(b1-6)]GalNAc
# Procedure, shortened: as §1
# [24] = biological target: Gal(b1-4)GlcNAc(b1-3)Gal(b1-4)GlcNAc(b1-6)[Gal(b1-3)]GalNAc
# Procedure, shortened: as §1
# [25] = biological target: Gal(b1-4)GlcNAc(b1-3)Gal(b1-4)[Fuc(a1-3)]GlcNAc(b1-3)Gal(b1-4)[Fuc(a1-3)]GlcNAc
# Procedure, shortened: as §1
# [26] = biological target: Gal(b1-4)GlcNAc(b1-3)GalNAc
# Procedure, shortened: as §1
# [27] = biological target: Gal(b1-4)GlcNAc(b1-3)[Fuc(a1-3)GlcNAc(b1-6)]Gal(b1-4)Glc
# Procedure, shortened: as §1
# [28] = biological target: Gal(b1-4)GlcNAc(b1-3)[Gal(b1-4)GlcNAc(b1-6)]Gal(b1-4)GlcNAc
# Procedure, shortened: as §1
# [29] = biological target: Gal(b1-4)GlcNAc(b1-3)[GlcNAc(b1-6)]Gal(b1-4)GlcNAc
# Procedure, shortened: as §1
# [30] = biological target: Gal(b1-4)GlcNAc(b1-6)Gal(b1-4)GlcNAc
# Procedure, shortened: as §1
# [31] = biological target: Gal(b1-4)GlcNAc(b1-6)GalNAc
# Procedure, shortened: as §1
# [32] = biological target: Gal(b1-4)GlcNAc(b1-6)[Gal(b1-3)]GalNAc
# Procedure, shortened: as §1
# [33] = biological target: Gal(b1-4)GlcNAc(b1-6)[Gal(b1-4)GlcNAc(b1-3)]GalNAc
# Procedure, shortened: as §1
# [34] = biological target: Gal(b1-4)GlcNAc6P
# Procedure, shortened: as §1
# [35] = biological target: Gal(b1-6)Gal
# Procedure, shortened: as §1
# [36] = biological target: Gal3S(b1-3)GalNAc
# Procedure, shortened: as §1
# [37] = biological target: Gal3S(b1-3)GlcNAc
# Procedure, shortened: as §1
# [38] = biological target: Gal3S(b1-3)[Fuc(a1-4)]GlcNAc
# Procedure, shortened: as §1
binder,measurement,setting,value
B1,glycan array binding signal (z-score),[1],-0.696
same,glycan array binding signal (z-score),[2],-0.585
same,glycan array binding signal (z-score),[3],-0.443
same,glycan array binding signal (z-score),[4],0.512
same,glycan array binding signal (z-score),[5],-0.38
same,glycan array binding signal (z-score),[6],-1.28
same,glycan array binding signal (z-score),[7],3.32
same,glycan array binding signal (z-score),[8],1.38
same,glycan array binding signal (z-score),[9],1.94
same,glycan array binding signal (z-score),[10],2.04
same,glycan array binding signal (z-score),[11],-0.025
same,glycan array binding signal (z-score),[12],2.11
same,glycan array binding signal (z-score),[13],2.27
same,glycan array binding signal (z-score),[14],1.12
same,glycan array binding signal (z-score),[15],-0.028
same,glycan array binding signal (z-score),[16],2.46
same,glycan array binding signal (z-score),[17],1.45
same,glycan array binding signal (z-score),[18],3.9
same,glycan array binding signal (z-score),[19],1.1
same,glycan array binding signal (z-score),[20],7.02
same,glycan array binding signal (z-score),[21],0.294
same,glycan array binding signal (z-score),[22],0.643
same,glycan array binding signal (z-score),[23],1.55
same,glycan array binding signal (z-score),[24],-0.028
same,glycan array binding signal (z-score),[25],-0.327
same,glycan array binding signal (z-score),[26],-0.547
same,glycan array binding signal (z-score),[27],-0.616
same,glycan array binding signal (z-score),[28],2.22
same,glycan array binding signal (z-score),[29],-0.103
same,glycan array binding signal (z-score),[30],-0.338
same,glycan array binding signal (z-score),[31],1.11
same,glycan array binding signal (z-score),[32],-0.003
same,glycan array binding signal (z-score),[33],-0.112
same,glycan array binding signal (z-score),[34],1.51
same,glycan array binding signal (z-score),[35],0.348
same,glycan array binding signal (z-score),[36],1.89
same,glycan array binding signal (z-score),[37],-0.554
same,glycan array binding signal (z-score),[38],-0.068

# Random excerpt: two entries already listed.
binder,measurement,setting,value
B1,glycan array binding signal (z-score),[12],2.11
same,glycan array binding signal (z-score),[22],0.643
